# Measured values reported in paper PMC5996148.
# This is one part of the list.
# Tests used:
# Test in all cases: protein microarray (ProtoArray v5.0), streptavidin-Alexa Fluor 647
# Conditions in all cases: 3'-biotin; 20 mM Tris (pH 7.5), 5 mM MgCl2, 100 mM KCl, 0.1% Tween-20, A/T-rich and random oligonucleotide blockers; temperature not stated; high values mean tight binding
# [1] = system: in the protein list file (human)
# juvenile (human) = system: juvenile (human)
# [2] = system: mRNA similar to hypothetical protein FLJ20234 (human)
# [3] = system: protein for MGC:19786 (human)
# rC (human) = system: rC (human)
sequence,measurement,setting,value
GGGGACAGGGGTATGGGGAGGGG [G4-3 biotinylated (CtG)],binding signal,[1],-0.307 z-score
same,binding signal,juvenile (human),-0.318 z-score
same,binding signal,[2],-0.325 z-score
same,binding signal,[3],-0.34 z-score
same,binding signal,rC (human),-0.32 z-score
